Laboratory results: PMC9303266
These are yes or no findings as the source states them, for the method shown. Binding seen in cells or lysates may run through a third protein. Here binding means that the protein was enriched with, or labelled near, the bait; the list need not be complete. For part of these data: No binding means not detected with the bait.

Protein sequences, listed by entry. Tags and fused reporters are not part of them. Residues count along the entry.
UniProt P27420, residues 18-661: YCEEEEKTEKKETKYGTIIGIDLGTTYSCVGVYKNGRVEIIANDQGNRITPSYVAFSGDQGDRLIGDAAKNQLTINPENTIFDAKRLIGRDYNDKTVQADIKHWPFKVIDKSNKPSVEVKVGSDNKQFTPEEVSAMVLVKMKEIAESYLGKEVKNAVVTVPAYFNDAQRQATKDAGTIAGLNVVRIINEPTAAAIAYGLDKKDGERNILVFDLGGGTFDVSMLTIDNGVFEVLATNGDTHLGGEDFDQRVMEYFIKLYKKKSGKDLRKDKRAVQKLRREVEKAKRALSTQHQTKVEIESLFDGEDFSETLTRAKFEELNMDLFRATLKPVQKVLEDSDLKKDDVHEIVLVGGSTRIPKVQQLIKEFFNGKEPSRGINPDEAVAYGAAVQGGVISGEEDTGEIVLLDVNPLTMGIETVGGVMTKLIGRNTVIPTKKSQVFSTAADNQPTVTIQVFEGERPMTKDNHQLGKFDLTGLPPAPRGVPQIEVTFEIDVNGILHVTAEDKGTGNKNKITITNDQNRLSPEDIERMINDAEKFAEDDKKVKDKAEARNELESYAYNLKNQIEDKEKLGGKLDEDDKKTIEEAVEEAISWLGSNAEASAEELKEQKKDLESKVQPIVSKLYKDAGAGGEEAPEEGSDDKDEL
UniProt P20163, residues 18-657: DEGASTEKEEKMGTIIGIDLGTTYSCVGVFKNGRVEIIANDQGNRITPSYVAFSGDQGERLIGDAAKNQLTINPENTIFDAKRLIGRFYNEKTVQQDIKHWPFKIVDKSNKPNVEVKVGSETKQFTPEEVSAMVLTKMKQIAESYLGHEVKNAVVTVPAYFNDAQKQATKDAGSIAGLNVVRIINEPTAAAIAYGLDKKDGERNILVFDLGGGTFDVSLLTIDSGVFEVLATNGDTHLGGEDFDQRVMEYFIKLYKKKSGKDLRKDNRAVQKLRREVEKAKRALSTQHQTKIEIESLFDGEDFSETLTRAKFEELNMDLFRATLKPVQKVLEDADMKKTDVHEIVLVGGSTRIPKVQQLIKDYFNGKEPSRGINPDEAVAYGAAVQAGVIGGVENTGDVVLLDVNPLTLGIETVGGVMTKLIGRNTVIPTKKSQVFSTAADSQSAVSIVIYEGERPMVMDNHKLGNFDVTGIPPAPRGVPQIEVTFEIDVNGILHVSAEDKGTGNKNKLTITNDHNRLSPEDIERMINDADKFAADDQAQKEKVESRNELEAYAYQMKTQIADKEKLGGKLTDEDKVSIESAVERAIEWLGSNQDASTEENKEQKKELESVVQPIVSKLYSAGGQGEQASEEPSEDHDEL
UniProt P11141, residues 28-657: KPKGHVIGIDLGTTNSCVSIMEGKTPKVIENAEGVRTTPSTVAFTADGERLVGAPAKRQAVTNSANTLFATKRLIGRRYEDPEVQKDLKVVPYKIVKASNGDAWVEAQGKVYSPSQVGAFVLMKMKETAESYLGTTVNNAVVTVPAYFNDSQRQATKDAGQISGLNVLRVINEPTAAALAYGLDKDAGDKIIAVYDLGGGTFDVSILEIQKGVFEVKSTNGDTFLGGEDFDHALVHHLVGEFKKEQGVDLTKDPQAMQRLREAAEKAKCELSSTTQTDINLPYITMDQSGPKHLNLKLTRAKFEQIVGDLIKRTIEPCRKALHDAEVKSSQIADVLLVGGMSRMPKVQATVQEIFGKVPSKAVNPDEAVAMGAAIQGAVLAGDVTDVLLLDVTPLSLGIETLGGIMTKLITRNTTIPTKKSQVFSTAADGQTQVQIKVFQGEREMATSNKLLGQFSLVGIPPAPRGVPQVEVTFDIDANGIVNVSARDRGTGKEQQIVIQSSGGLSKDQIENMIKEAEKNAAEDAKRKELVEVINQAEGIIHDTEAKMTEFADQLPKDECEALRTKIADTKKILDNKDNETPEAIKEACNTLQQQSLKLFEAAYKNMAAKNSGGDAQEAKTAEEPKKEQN
UniProt P28548: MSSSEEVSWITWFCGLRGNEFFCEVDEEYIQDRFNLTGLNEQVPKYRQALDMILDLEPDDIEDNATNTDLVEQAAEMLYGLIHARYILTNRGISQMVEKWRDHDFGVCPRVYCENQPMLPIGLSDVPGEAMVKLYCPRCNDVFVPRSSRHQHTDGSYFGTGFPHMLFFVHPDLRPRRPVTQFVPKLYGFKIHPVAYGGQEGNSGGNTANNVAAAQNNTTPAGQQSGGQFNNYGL
UniProt A0A0K3AUJ9: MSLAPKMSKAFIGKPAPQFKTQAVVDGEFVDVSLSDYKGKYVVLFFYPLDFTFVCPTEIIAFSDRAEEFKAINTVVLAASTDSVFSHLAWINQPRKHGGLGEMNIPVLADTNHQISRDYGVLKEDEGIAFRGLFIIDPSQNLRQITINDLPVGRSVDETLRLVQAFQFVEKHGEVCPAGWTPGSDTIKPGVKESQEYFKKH
UniProt Q10013: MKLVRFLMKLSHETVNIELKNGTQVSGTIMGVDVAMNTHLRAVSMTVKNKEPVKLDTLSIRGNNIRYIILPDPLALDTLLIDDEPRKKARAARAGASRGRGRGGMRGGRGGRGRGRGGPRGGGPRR
UniProt Q18786: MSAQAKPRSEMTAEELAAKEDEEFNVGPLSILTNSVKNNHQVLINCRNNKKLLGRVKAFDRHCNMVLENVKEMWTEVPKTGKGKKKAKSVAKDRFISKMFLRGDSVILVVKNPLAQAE
UniProt P34659: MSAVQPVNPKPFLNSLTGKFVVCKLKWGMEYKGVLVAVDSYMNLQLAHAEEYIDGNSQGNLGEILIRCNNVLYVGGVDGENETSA
UniProt O17921: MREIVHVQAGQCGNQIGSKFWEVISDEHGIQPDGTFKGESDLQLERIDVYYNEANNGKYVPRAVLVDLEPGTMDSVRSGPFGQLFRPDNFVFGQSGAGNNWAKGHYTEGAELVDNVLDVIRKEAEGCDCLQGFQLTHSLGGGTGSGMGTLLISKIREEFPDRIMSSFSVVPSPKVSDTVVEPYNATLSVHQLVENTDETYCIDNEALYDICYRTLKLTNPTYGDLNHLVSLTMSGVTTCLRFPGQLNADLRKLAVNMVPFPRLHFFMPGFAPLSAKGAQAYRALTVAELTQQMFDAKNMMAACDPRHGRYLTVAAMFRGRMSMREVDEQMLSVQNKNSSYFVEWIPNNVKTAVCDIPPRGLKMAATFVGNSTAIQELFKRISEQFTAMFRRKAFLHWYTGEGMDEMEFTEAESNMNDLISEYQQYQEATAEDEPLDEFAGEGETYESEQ

Tests used:
[1] = molecular target: GFP::SNA-1 (C. elegans (endogenous in embryo extract)) (UniProt O45149); test: condition: only extract pre-treated with RNase A and RNase T1; affinity purification with mass spectrometry; as a1, but the PE906 embryo extract was pre-treated with 200 units/ml RNase T1 and 5 units/ml RNase A for 1 h at 4°C before the immunoprecipitation
[2] = molecular target: GFP::SNA-1 (C. elegans (endogenous in embryo extract)) (UniProt O45149); test: affinity purification with mass spectrometry; GFP::SNA-1 precipitated from PE906 embryo extract with anti-GFP nanobody agarose beads (GFP-Trap) against control agarose beads, triplicates, 1 h at 4°C; label-free LC-MS/MS (MaxQuant, Perseus; FDR < 0.01, S0 2.5); extract not treated with RNase
[3] = molecular target: GFP::SNA-1 (C. elegans (endogenous in embryo extract)) (UniProt O45149); test: as above; remark: listed apart in the source
[4] = molecular target: SNA-3::GFP (C. elegans (endogenous in embryo extract)) (UniProt Q9GYR5); test: condition: only extract pre-treated with RNase A/T1; affinity purification with mass spectrometry; as a3, but the PE975 embryo extract was pre-treated with RNase A/T1 before the immunoprecipitation
[5] = molecular target: SNA-3::GFP (C. elegans (endogenous in embryo extract)) (UniProt Q9GYR5); test: affinity purification with mass spectrometry; SNA-3::GFP precipitated from PE975 embryo extract with anti-GFP nanobody agarose beads against control agarose beads, triplicates; label-free LC-MS/MS; extract not treated with RNase

Row | Molecule | binding [1] | binding [2] | binding [3] | binding [4] | binding [5]
1 | HSP-3 (from UniProt P27420 18-661) | no binding | binds | – | – | –
2 | HSP-4 (from UniProt P20163 18-657) | no binding | binds | – | – | –
3 | HSP-6 (from UniProt P11141 28-657) | no binding | binds | – | – | –
4 | KIN-10 (from UniProt P28548 1-234) | no binding | binds | – | – | –
5 | PRDX-2 (from UniProt A0A0K3AUJ9 1-201) | no binding | binds | – | – | –
6 | SNR-3 (from UniProt Q10013 1-126) | no binding | binds | – | – | –
7 | SNR-4 (from UniProt Q18786 1-118) | no binding | binds | – | – | –
8 | SNR-5 (from UniProt P34659 1-85) | no binding | binds | – | – | –
9 | TBA-7 (from UniProt O18154) | no binding | binds | – | – | –
10 | TBB-1 (from UniProt O17921 1-449) | no binding | binds | – | – | –
11 | TBB-2 (from UniProt P52275 1-450) | no binding | binds | – | – | –
12 | PRP-19 (protein, UniProt Q10051 1-492) MSFVCGISGELTEDPVVSQVSGHIFDRRLIVKFIAENGTDPISHGELSEDQLVSLKSGGTGSAPRNVSGTSIPSLLKMLQDEWDTVMLNSFSLRQQLQIARQELSHSLYQHDAACRVISRLSKELTAAREALSTLKPHTSAKVDDDVSIDESEDQQGLSEAILAKLEEKSKSLTAERKQRGKNLPEGLAKTEELAELKQTASHTGIHSTGTPGITALDIKGNLSLTGGIDKTVVLYDYEKEQVMQTFKGHNKKINAVVLHPDNITAISASADSHIRVWSATDSSSKAIIDVHQAPVTDISLNASGDYILSASDDSYWAFSDIRSGKSLCKVSVEPGSQIAVHSIEFHPDGLIFGTGAADAVVKIWDLKNQTVAAAFPGHTAAVRSIAFSENGYYLATGSEDGEVKLWDLRKLKNLKTFANEEKQPINSLSFDMTGTFLGIGGQKVQVLHVKSWSEVVSLSDHSGPVTGVRFGENARSLVTCSLDKSLRVFSF | no binding | – | binds | – | –
13 | SNR-1 (protein, UniProt Q17348 1-136) MTSVGVPIKILHEAEGHMVTLETVTGEVYRGKLSEAEDNMNCQLAETVVTFRDGRSHQLDNVFIRGNKIRFMILPDMLKNAPMFKNIGRAQKGAIGMGLGGLDQRGRGRGTAFRRPMGRGGPRGMSRPGGAPTFRG | no binding | – | binds | – | –
14 | TBH-1 (enzyme, UniProt Q9XTQ6 1-657) MEPTASQGIQYLRGGVEWILKLLNLHILNVKHENKPLLFRLIDLKVYIPSSVSTVRWSSGASSYVILGEYRKMRSAVALLFLLVAYCGGVVHAGEIVAELYHTNVTVKWHTDYERQLVDFSIWFGASTPDVLFLGFSDFGDTNNSDVLMYYNSKKEIKDAYTNRDFKITSDLQQDFQLLRKRKDHIVVRRKLTTCDSRDYAFLPGTTQFYIAASWGSTNLVDIRDKRWVVDKKFGKVIEGPTDQPNIEEEPAALEKDVKVVIVNSNSPDPIPNVETTYKCIIRKMPFDTVNNMYHVVRMEPYVTPGNEHLVHHMEIFMCRDEVEEWSGSCNDPKKPPKSKSCSHVIAAWAMGEGPIHYPKEAGLPIGGKGKNAYVMVEIHYNNPELHKGVIDSSGFQFFVTGQLRKYDAGIMELGLIYSDANSVPPNQKAWAMNGYCPSQCTKNLPEEGINIFASQLHAHLTGRKLFTSQYRSGVRIGDVNRDEHYSPHWQHLQQLRPVVKVMPGDTLVTTCVYDTRKRSKVTFGGYRIVDEMCVNYIYYYPASDVEVCKSAISNSTLRAYFSERHGMDGKRMQISDMYSNVKDWGNGVDEEFYNVLNVGNMNMNCLKSNGEPFEFESKDSRQSWENMARPTFVSGSFITTRDRFQCPAINDMINFE | no binding | – | binds | – | –
15 | F54C8.4 (enzyme, UniProt P34442 1-359) MVRVCRVVPKDWSKFQPVGNVIPRTRFIVFKTPINSQLSTKIHKEQRFTTNDLFRQLSERGQYLGLVVDLSDTDRYYDKKDITGMCVQYEKVNCPGRGFIERDDCVESFHQVIQDYTDKCDDPDALIGVHCTNGINRCGYLICRFLIDRLGWSSHEAIDAFEQARGYSIEKGAYVMALHKAAKDKRDKQVDSDSDSSERQRKKKNKRKHREIVEHENIVLINTIIGELGSQAASVSGTDYQNSPNGVSVDPGQPQPHHWGFAIKRSKYAQLNQPVANGANTPPEPSEGTPQEEEEFEEDFEEIEEETETEPGKGQSVSSKRRARRNRMQKYMQVMQRGRFHEIQAIREEVALSHGSARD | – | – | – | no binding | binds
16 | NCBP-2 (protein, UniProt Q93594 1-158) MVFDPRTLDNPKEISAYRDQRYQGTVRDQETALRTSCTLYVGNLSYYTKEDQVYELFGRAGDVRRVIMGLDRFKKTPCGFCFVEYYTREDAELALQNISNTRMDDRVIRADWDAGFIEGRQYGRGKHGGQVRDEYRKDYDPERGGYNRAIAQKGGDRQ | – | – | – | – | binds weakly
17 | MTR-4 (enzyme, UniProt Q23223 1-1026) MADLFDEFIEPGVKNEIMDVEEAPENPMEKLDSAKKRQAREDMTNLLANMHNDVGVGNFDEATSKRARVEEEEEVEEARMENIIVHTIRTDNENCTHEVAIPPNAEFAELRENSGTEPAKYYPFQLDAFQKQAILCIDNNQSVLVSAHTSAGKTVVATYAIAKCLREKQRVIYTSPIKALSNQKYRELEEEFKDVGLMTGDVTLNPDASCLVMTTEILRSMLYRGSEIMKEVGWVVYDEIHYMRDKERGVVWEETIILMSKNIKQAFLSATIPNARQFAQWVASIKQQPVNVVYTDYRPTPLQHWIYPVGGEGMYEVVNVKGEFREDKFRDAMSGLATAGDSAGSFNKRRTGGGTQGDSNVLKIIRSVASNDGLNCIVFSFSRKECESYAISLKDMDFNKDHEKGMVKSVYESAIAQLSPEDQKLPQILNILPLLRRGIGVHHSGLMPILKETIEILFGEGLVKVLFATETFSMGLNMPARTVVFTSARKFDGSDNRYITSGEYIQMAGRAGRRGKDDRGTVILMVDSAMSADDAKQIIKGATDPLNSQFRLTYNMVLNLMRVEGMAVSWIINNSFHQFQSYAKIPEIDKKCVQVERKIASFNFPWENEMRTLVDLQDQLEATRQRIIQIQREPKYIVGFLHAGRLFKVKSGDRDFKWGILNQFKKEQNPDDRNDQIYLCDMMIAINTEGRFDPTNPATLVPGFDLPKRRWIRVPMTIDRITAISAVRLKVPADIDKPDGQMRLDGMMAAATKRFGNQIPLLDPIQDMEIKTVEMKELIAREKSLEGRLETHSMTKRDNMKDLKKQFEQKQDAVKELNALKAERKSVQSTLHLEELNNRKRVLRRLGYLGNDDALVLKGSVACELSASDELILTEMLLKGIFNTLDVAQTAALLSCFVFQDKCAAPKLATELQTCLSELHEQARNVAKVSNECKMEVMEDKYVSSFNPGLMDVVYQWVNGATFSEIVKTTDVFEGSIIRTLRRLEEVLREMINAAKALANKELEQKFEDARKNLKRDIVFAASLYL | – | – | – | – | binds
18 | SNR-6 (protein, UniProt Q9XTU6 1-90) MSTRKLNKVMVQPVNLIFRYLQNRTRVQIWLYEDVTHRLEGYIIGFDEFMNVVFDEAEEVNMKTKGRNKIGRILLKGDNITLIHAAQQEA | no binding | – | binds | – | –
19 | SNR-7 (protein, UniProt Q9N4G9 1-77) MSKTHPPELKKYMDKEMDLKLNGNRRVSGILRGFDPFMNMVIDEAVEYQKDGGSVNLGMTVIRGNSVVIMEPKERIS | no binding | – | binds | – | –
